Data reported in patent US20050107353A1, “Methods of treating lower urinary tract disorders using losigamone” (Dynogen Pharmaceuticals, Inc., priority 2003, published 2005).
Entries after “also recorded” stand apart in the source; their conditions may differ.

Tested on: acetic acid-induced reduction of bladder capacity
Test: Dilute acetic acid model: bladder capacity by filling cystometry during continuous intravesical acetic acid irritation
Format: in vivo, rat
Details: intravenous, increasing doses, rats during continuous irritation
From the text: The objective of the current study was to determine the effect of TTX-R sodium channel modulators or use dependent sodium channel modulators on the ability to reverse the reduction in bladder capacity seen following continuous infusion of dilute acetic acid, a commonly used model of lower urinary tract disorders including overactive bladder.
Animal Preparation: Female rats (250-275 g BW) were anesthetized with urethane (1.2 g/kg) and a saline-filled catheter (PE-50) was inserted into either the jugular vein for intravenous (i.v.; saline vehicle) or the proximal duodenum for intraduodenal (i.d.; distilled water or 10% Tween 80 in saline as vehicle) drug administration. Via a midline lower abdominal incision, a flared-tipped PE 50 catheter was inserted into the bladder dome for bladder filling and pressure recording and secured by ligation. The abdominal cavity was moistened with saline and closed by covering with a thin plastic sheet in order to maintain access to the bladder for emptying purposes. Fine silver or stainless steel wire electrodes were inserted into the external urethral sphincter (EUS) percutaneously for electromyography (EMG). […]
Data were analyzed by non-parametric ANOVA for repeated measures (Friedman Test) with Dunn's Multiple Comparison test. […]

CCN(CC)CC(=O)Nc1c(C)cccc1C [Lidocaine, 2-(diethylamino)-N-(2,6-dimethylphenyl)acetamide]
effect on bladder capacity (reversal of acetic acid-induced reduction): capable of partially reversing the reduction in bladder capacity caused by acetic acid in a dose-dependent fashion; also recorded: dose-dependent and statistically significant reversal | effect on bladder capacity (reversal of acetic acid-induced reduction) (listed as lidocoaine): dose-dependent, statistically significant increases in bladder capacity
